Measured values as given in US7491722B2, “Pyridazin-3(2H)-one derivatives” (Laboratorios Almirall S.A., priority 2002, dated 2009).
For at least one compound, name, drawing or mass did not settle the structure.

Test system: PDE4
Assay: PDE4 Assay Procedure ([3H]-cAMP SPA)
Format: biochemical
Protocol: Compounds to be tested were resuspended in DMSO at a stock concentration of 1 mM. The compounds were tested at different concentrations varying from 10 μM to 10 pM to calculate an IC50. These dilutions were done in 96-well plates. In some cases, plates containing diluted compounds were frozen before being assayed. In these cases, the plates were thawed at room temperature and stirred for 15 minutes.
Ten microliters of the diluted compounds were poured into a “low binding” assay plate. Eighty microliters of reaction mixture containing 50 mM Tris pH 7.5, 8.3 mM MgCl2, 1.7 mM EGTA, and 15 nM [3H]-cAMP were added to each well. The reaction was initiated by adding ten microliters of a solution containing PDE4. The plate was then incubated under stirring for 1 hour at room temperature. After incubation the reaction was stopped with 50 microlitres of SPA beads, and the reaction was allowed to incubate for another 20 minutes at room temperature before measuring radioactivity using standard instrumentation.
The reaction mixture was prepared by adding 90 ml of H2O to 10 ml of 10× assay buffer (500 mM Tris pH 7.5, 8.3 mM MgCl2, 17 mM EGTA), and 40 microlitres 1 μCi/μL [3H]-cAMP. SPA beads solution was prepared by adding 500 mg to 28 ml H2O for a final concentration of 20 mg/ml beads and 18 mM zinc sulphate.

SMILES | IC50
CCn1nc(-c2ccncc2)c(C(C)=O)c(Nc2cccc(OC)c2)c1=O [Example 36, 5-Acetyl-2-ethyl-4-[(3-methoxyphenyl)amino]-6-pyridin-4-ylpyridazin-3(2H)-one] | 6.4 nM
CC(=O)c1c(-c2ccncc2)nn(CCO)c(=O)c1Nc1cccc(Cl)c1 [Example 51, 5-Acetyl-4-[(3-chlorophenyl)amino]-2-(2-hydroxyethyl)-6-pyridin-4-ylpyridazin-3(2H)-one] | 29 nM
CCn1nc(-c2nc3ccccc3o2)c(C(C)=O)c(Nc2cccc(F)c2)c1=O [Example 96, 5-Acetyl-6-benzooxazol-2-yl-4-(3-fluorophenylamino)-2-ethyl-pyridazin-3(2H)-one] | 5.1 nM
